Data published in paper PMC3605578.
Changes are numbered by the printed parent chain. In names and notes the source's numbering stands. These are yes or no findings as the source states them, for the method shown. For some of these results: In cells and extracts the contact can be indirect. Some results given as binding are weak or reduced against the parent protein; the word gives no strength. For some of these results: Where a sequence is shown, tags or fusion partners need not be part of it. One block for each molecule: values may come before it.

Chains of the proteins cited; added tags and fusions are not shown.
UniProt O00560: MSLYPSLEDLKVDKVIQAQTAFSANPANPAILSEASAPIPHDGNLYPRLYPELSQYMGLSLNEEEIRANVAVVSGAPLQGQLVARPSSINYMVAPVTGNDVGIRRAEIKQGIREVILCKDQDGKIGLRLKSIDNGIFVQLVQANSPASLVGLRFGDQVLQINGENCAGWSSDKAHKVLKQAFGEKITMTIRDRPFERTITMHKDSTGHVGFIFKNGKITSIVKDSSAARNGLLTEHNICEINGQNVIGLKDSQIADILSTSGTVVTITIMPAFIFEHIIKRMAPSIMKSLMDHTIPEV

Experiments:
[1] = molecular target: T1, wild-type syndecan-4 expressed in syndecan-4-null MEFs (UniProt P31431); assay: co-IP; coimmunoprecipitation of GFP-syntenin with syndecan-4 from MEFs; 1-3 ug antibody, protein G Sepharose, 1.5 hr at 4°C
T1 sequence: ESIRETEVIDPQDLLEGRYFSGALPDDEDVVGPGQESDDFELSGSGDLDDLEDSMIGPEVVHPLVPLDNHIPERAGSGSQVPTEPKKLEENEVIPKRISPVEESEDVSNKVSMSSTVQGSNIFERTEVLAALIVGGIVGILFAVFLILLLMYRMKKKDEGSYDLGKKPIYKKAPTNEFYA

[2] = molecular target: T2, syndecan-4 Y180E expressed in syndecan-4-null MEFs (UniProt P31431); assay: as above
T2 sequence: T1 sequence with Y162E

[3] = molecular target: T3, GST-syndecan-4 cytoplasmic domain, wild type (UniProt P31431); assay: pull-down; recombinant GST-Syn4 cytoplasmic domains as bait; syntenin from cell lysate, detected by blot; only the target purified
T3 sequence: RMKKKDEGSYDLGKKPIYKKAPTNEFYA

[4] = molecular target: T4, GST-syndecan-4 cytoplasmic domain Y180E (UniProt P31431); assay: as above
T4 sequence: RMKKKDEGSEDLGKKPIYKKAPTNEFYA

[5] = molecular target: endogenous syndecan-4 of human fibroblasts (human (endogenous in human fibroblasts)) (UniProt P31431); assay: SDS-PAGE or Phos-tag gel and immunoblotting after immunoprecipitation; syndecan-4 immunoprecipitated from cell lysate, resolved under reducing SDS conditions; monomer and dimer bands
[6] = molecular target: T1, wild-type syndecan-4 expressed in syndecan-4-null MEFs; assay: as above
[7] = molecular target: syndecan-4 Y180L expressed in syndecan-4-null MEFs (UniProt P31431); assay: as above

Molecule: GFP-syntenin (from UniProt O00560 1-298)
binding [1]: binds
binding [2]: binds

Molecule: syntenin, from cell lysate (from UniProt O00560 1-298)
binding [3]: binds
binding [4]: binds

B3: syndecan-4 Y180L expressed in syndecan-4-null MEFs (receptor, UniProt P31431 19-198)
chain: T1 sequence with Y162L
binding [7]: binds

The remaining lines, values ahead:

binding [5]: binds
B1: endogenous syndecan-4 of human fibroblasts (receptor, UniProt P31431 19-198)
chain: T1 sequence

binding [6]: binds
B2: wild-type syndecan-4 expressed in syndecan-4-null MEFs (receptor, UniProt P31431 19-198)
chain: T1 sequence
